Reference: PubChem BioAssay AID504808 (Drosophila RNAi Screening Center, 2011)
In all, the deposit lists about 21,000 reagents; this is an unselected part of those that have a named target and a result. In the full data, 18 (0.084%) are marked active. 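Raw counts without plate normalisation, one of two replicates; the ratio scores behind the calls were not deposited.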 A number with no mark means an inactive call. Not given: the amount of reagent, the time to read-out.

Assay: 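Genes whose loss lifts activity of an E2F-responsive reporter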 (primary screen)
Cell system: Drosophila S2 cells
Knock-down reagent: long dsRNA against Drosophila genes
Measurement: 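Dual luciferase plate measurements; E2F-specific signal taken as firefly over Renilla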
Reading the numbers: E2F firefly: higher = more E2F reporter activity; Renilla normaliser: higher = more normaliser reporter signal
Active means: 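a knock-down counted as active when the firefly/Renilla E2F signal rose above 50%, a threshold chosen arbitrarily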

{"gene":"CG4036 (GeneID 34302)","dsRNA":"DRSC02735","E2F firefly, rep 1":80850,"Renilla normaliser, rep 1":3128}
{"gene":"Cerk (GeneID 40640)","dsRNA":"DRSC12285","E2F firefly, rep 1":69787,"Renilla normaliser, rep 1":3474}
{"gene":"mab-21 (GeneID 44127)","dsRNA":"DRSC18791","E2F firefly, rep 1":1.22e5,"Renilla normaliser, rep 1":6266}
{"gene":"Tssk (GeneID 42233)","dsRNA":"DRSC14784","E2F firefly, rep 1":1.28e5,"Renilla normaliser, rep 1":7689}
{"gene":"Art1 (GeneID 41295)","dsRNA":"DRSC16063","E2F firefly, rep 1":70274,"Renilla normaliser, rep 1":3121}
{"gene":"DIP1 (GeneID 43981)","dsRNA":"DRSC20818","E2F firefly, rep 1":1.30e5,"Renilla normaliser, rep 1":6507}
{"gene":"Su(H) (GeneID 34881)","dsRNA":"DRSC03445","E2F firefly, rep 1":1.13e5,"Renilla normaliser, rep 1":4715}

Only “Renilla normaliser, rep 1”, for 2 of the entries above:
CG4036 (GeneID 34302) [DRSC02735]: 3128
Cerk (GeneID 40640) [DRSC12285]: 3474

Next records follow.
{"gene":"Su(P) (GeneID 39856)","dsRNA":"DRSC11291","E2F firefly, rep 1":1.65e5,"Renilla normaliser, rep 1":7051}
{"gene":"Rab7 (GeneID 42841)","dsRNA":"DRSC16810","E2F firefly, rep 1":76926,"Renilla normaliser, rep 1":4008}
{"gene":"CG5323 (GeneID 37137)","dsRNA":"DRSC06929","E2F firefly, rep 1":1.50e5,"Renilla normaliser, rep 1":5271}
{"gene":"CngB (GeneID 37479)","dsRNA":"DRSC04297","E2F firefly, rep 1":87836,"Renilla normaliser, rep 1":3592}
{"gene":"CG31077 (GeneID 318583)","dsRNA":"DRSC13805","E2F firefly, rep 1":93594,"Renilla normaliser, rep 1":3236}
